The full ranking holds about 33,000 sequences; the median of “E-score (-0.5 to 0.5)” is about -8e-05, and the highest 2% start at about 0.23. The list shows a part of the results.
biological target: T1, Nrg2 (UniProt P38082); assay: PBM E-score (8-mer binding enrichment) (E-score (-0.5 to 0.5)); higher = stronger / more preferred TF binding; details: protein concentration: 100 nM; construct: GST-full length
T1 sequence: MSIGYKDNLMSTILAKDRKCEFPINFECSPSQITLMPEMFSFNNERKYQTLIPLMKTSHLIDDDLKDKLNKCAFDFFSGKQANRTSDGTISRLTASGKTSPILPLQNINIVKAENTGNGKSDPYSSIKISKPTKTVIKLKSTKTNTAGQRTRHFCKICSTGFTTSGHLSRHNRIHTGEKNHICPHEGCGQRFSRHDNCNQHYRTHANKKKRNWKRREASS
In short: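 The E-score, a modified Wilcoxon-Mann-Whitney statistic, was computed by the Universal PBM Analysis Suite for every ungapped eight-base word pooled with its reverse complement. Scans behind it were normalised with masliner after bound GST-tagged yeast transcription factors were detected with fluorescent anti-GST. The proteins, at about 100-200 nM, had been applied to universal all-10-mer Agilent arrays made double-stranded by primer extension.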

Sequence | PBM E-score
TTGCTAAA | -0.0838
AATGCTTG | -0.117
GCAGATGC | -0.0372
GGCCACAC | -0.0192
TCGTTGCA | -0.023
AAGCCAAT | -0.0447
CACAGGCG | -0.00844
TAACAAAA | 0.0323
ACATTGTA | 0.129
GCTCGCCA | 0.113
CATTTCAG | -0.0267
GCCGCAGA | 0.0603
ACTGGTAA | 0.0662
GCTCCCAA | -0.0754
AGCAGTTG | 0.0315
AAACGTGA | 0.0367
CAACCTGC | 0.0403
ACTACCGC | -0.0511
ACCGCGGC | 0.0385
CCCTTCGG | 0.0466
AAGGCTCG | -0.24
TGCCTCAA | 0.00238
AGACTCCC | -0.404
CACTCCAC | -0.00112
AGACTCCT | -0.0545

Sequence | PBM E-score
ACGCTTCG | 0.0597
CGCCGGCC | -0.166
TCACGAAA | 0.0618
ATCTAGGC | -0.174
CGCTTATA | 0.14
CGACGAAC | 0.142
ACTTTCTG | 0.0001
CGTCTTTC | -0.185
CTGTGTCA | -0.0513
AGATGCCC | 0.0908
AAGCAAAG | -0.109
GCAGTAGA | -0.185
CGCGATCA | 0.134
CCTATTAC | 0.0565
AATCCAAC | -0.0675
GCGAATGA | 0.182
ACGTTTCT | -0.0896
CTCTCCAC | -0.189
AGGTGGTA | 0.0866
CACCTCTG | -0.0522
ACGACCCT | 0.1
AGTTTAAA | 0.0162
AGATGTTG | -0.0673
ATGAGGGA | -0.0703
AGCTAGCA | -0.191

Sequence | PBM E-score
ACAGTTAT | 0.0731
GACGCTCA | -0.122
GCAGAAGC | -0.0396
AGGTCGGG | -0.142
GACCCCAA | -0.0335
CCATGTGC | 0.0328
AATGCAGT | 0.0384
ACTGGATG | -0.0725
AGCCAGGG | 0.0594
AGCCTCTC | -0.241
CCTGCGAC | -0.0943
CAGCAGCG | -0.0287
CCACACCG | -0.00232
CGTAAGCA | -0.2
AGATAAAC | 0.147
CAGTCCAG | -0.185
CGGGCCAG | -0.0425
CTTGGGGC | 0.124
AAGACATG | -0.218
CAGCGCAA | 0.0307
GGCCCAAA | 0.0526
ACTGGACC | -0.0246
ATCATGAA | 0.159
GAATGTGC | -0.0362
AAAGTCAG | 0.0997

Six entries from above, comma-delimited.
Sequence,PBM E-score
TAACAAAA,0.0323
ACATTGTA,0.129
GCTCGCCA,0.113
CATTTCAG,-0.0267
GCCGCAGA,0.0603
ACTGGTAA,0.0662

A different layout for part of the listing above:
ACTTTCTG
  PBM E-score: 0.0001
CGTCTTTC
  PBM E-score: -0.185

(next part)

Sequence | PBM E-score
CTTACGAC | -0.15
CGCATTAG | -0.116
CGTGCGAG | 0.105
AAAACAAG | 0.173
CAAACTGC | 0.0245
GCCCCTAA | 0.144
AGCACGTA | -0.111
CAGTGTGG | -0.15
GATACGCC | -0.0355
ACGCGTAC | 0.0223
AAGCGCTA | 0.0465
AAGCGTAT | 0.0185
AATTAACT | 0.19
CTCTACGC | 0.0332
CCTCGCCG | -0.135
CGCGGGCA | 0.281
CAGCCTAC | 0.0702
ACGGGCGC | 0.0207
GCAATACA | 0.298
CAAGATGC | 0.177
ATATGCTG | -0.0112
GCCCGTTA | -0.159
CCCCCATA | -0.338
GCTTCGTA | -0.102
CATCAGGC | -0.00739

Part of the list above, with tabs:
Sequence	PBM E-score
GCAATACA	0.298
CAAGATGC	0.177
ATATGCTG	-0.0112
GCCCGTTA	-0.159
CCCCCATA	-0.338

(next part)

Sequence | PBM E-score
ACATCGCA | -0.0272
CAAGTATC | -0.00589
ATAAAATC | 0.107
ACGAGGTG | 0.0679
AGTCACTA | -0.0493
TCACATAA | 0.0235
ACAATGTA | 0.104
GCCCGAGC | 0.106
ATCGTTAC | 0.0129
GAGAGTAA | 0.146
ACCACGCT | -0.204
ATAGGTTG | -0.0799
CCCTGCGA | 0.106
CGTCGGCA | -0.114
CGTCGCAA | 0.179
CGGCGTGA | 0.023
AGGGTGCA | 0.256
CCTACCAA | 0.0987
AACTTGAA | 0.0613
CTTTCTGA | -0.0661
AAATCACC | 0.137
AATCCGCT | 0.00723
GTCAAAGA | -0.0048
GCACAGGA | 0.00824
GGATATAC | 0.059

Sequence | PBM E-score
ACAGCTCA | 0.00949
TACGTAGA | -0.122
ATAGACAG | 0.193
CATTCCGC | -0.0221
CTCGGTTC | -0.317
AGAGTGCT | 0.105
AAGTATTC | 0.0863
AACGCCTT | -0.15
ATTTGGCC | 0.0466
CAGCTCAA | 0.118
CGGCGTTA | -0.11
ATCATAAT | 0.216
ATTGAGCC | 0.167
CCTCCTAA | -0.226
CAGTTTGC | -0.00309
CATAAAGG | -0.0144
CAGTCTCC | -0.221
GATAGACC | 0.0652
CACCAGGC | -0.0949
ATAAAAAC | 0.121
CACCTAAG | 0.0319
TATAAGGA | 0.136
TAAGTAGA | 0.0125
CCCTTCAG | -0.0444
ATCTCAGA | -0.0914

Sequence | PBM E-score
CACCGATA | 0.0717
AGTTATGG | 0.0276
ATTCACGC | -0.0865
ATGATGCC | -0.0974
AACCGGGC | -0.192
GAAGCCCA | -0.144
GATGTACC | 0.0817
GACTACGA | -0.12
AGCTGTAA | -0.125
CCGGTGCA | -0.0404
TATGGTCA | -0.00136
CTCATATC | 0.026
CCTTTGAG | -0.194
CCGGCAGG | -0.107
CGAAAGTA | 0.00179
CTTACTTC | 0.171
CTGTCCAA | 0.0159
GGTCTGAC | 0.0413
CCACCCTA | 0.0378
GGGCGCCA | 0.191
GACTCGGA | -0.226
CCATTTCG | 0.106

Reference: the supplement of paper PMC3334620
